Source: PubChem BioAssay AID1259254 (NCATS, 2017)
Purpose: 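Finding genes that stop cells copying their DNA twice in one cycle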 (primary screen). Cells: human HCT116 colorectal cancer cells. Reagents: single siRNA against human genes. Time to read-out: 3 days. Measurement: 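Nuclei stained with Hoechst and imaged; cell-cycle phase assigned by DNA content; G2 share scaled per plate, non-targeting siRNA 0%, GMNN siRNA 100%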. Reading the numbers: G2 robust z-score and G2 cells, % of GMNN control: higher = more G2 cells, more excess DNA replication. Call rule: 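Active siRNAs have a G2 robust z of 5 or more median absolute deviations over the median, which in these data means about 38% or higher of GMNN control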.
In all, the deposit lists about 59,000 reagents; below is an unselected part. In the full data, about 1,550 (2.6%) were called active. 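G2 share is only a proxy for re-replication; each gene was hit by three separate siRNAs, and active genes were retested.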 Reagents against one gene are numbered here. Further read-outs or replicates are left out here. No sequences are given here. Not stated in the record: the amount of reagent.

CILP2 (cartilage intermediate layer protein 2) #1 gave G2 robust z-score 1.72; G2 cells, % of GMNN control 15; inactive.
Against CILP2 (cartilage intermediate layer protein 2) #2, the values are G2 robust z-score -0.876; G2 cells, % of GMNN control -3.2; inactive.
Against CILP2 (cartilage intermediate layer protein 2) #3 the deposit lists G2 robust z-score 2.28; G2 cells, % of GMNN control 19; inactive.
With knock-down of ABCG5 (ATP binding cassette subfamily G member 5) #1, the record shows G2 robust z-score -0.896; G2 cells, % of GMNN control -3.33; inactive.
ABCG5 (ATP binding cassette subfamily G member 5) #2 showed G2 robust z-score -0.956; G2 cells, % of GMNN control -3.76; inactive.
ABCG5 (ATP binding cassette subfamily G member 5) #3 showed G2 robust z-score 0.693; G2 cells, % of GMNN control 7.84; inactive.
Depletion of TNFRSF9 (TNF receptor superfamily member 9) #1 gave: G2 robust z-score 0.542; G2 cells, % of GMNN control 6.78; inactive.
Depletion of TNFRSF9 (TNF receptor superfamily member 9) #2 resulted in: G2 robust z-score 2.86; G2 cells, % of GMNN control 23.1; inactive.
After knock-down of TNFRSF9 (TNF receptor superfamily member 9) #3, the record shows G2 robust z-score -0.902; G2 cells, % of GMNN control -3.38; inactive.
Depletion of FUT8 (fucosyltransferase 8) #1 resulted in: G2 robust z-score 0.982; G2 cells, % of GMNN control 9.87; inactive.
FUT8 (fucosyltransferase 8) #2 scored G2 robust z-score 1.36; G2 cells, % of GMNN control 12.5; inactive.
After knock-down of FUT8 (fucosyltransferase 8) #3, the screen gave G2 robust z-score 0.441; G2 cells, % of GMNN control 6.07; inactive.

Laid out differently: results already given
gene symbol | siRNA no. | G2 robust z-score | G2 cells, % of GMNN control | Outcome
ABCG5 (ATP binding cassette subfamily G member 5) | 3 | 0.693 | 7.84 | inactive
TNFRSF9 (TNF receptor superfamily member 9) | 1 | 0.542 | 6.78 | inactive

Continued:
With knock-down of ARPP19P2 (ARPP19 pseudogene 2) #1 the results were G2 robust z-score 2.46; G2 cells, % of GMNN control 20.3; inactive.
Knock-down of ARPP19P2 (ARPP19 pseudogene 2) #2 came out at: G2 robust z-score 0.828; G2 cells, % of GMNN control 8.79; inactive.
After knock-down of ARPP19P2 (ARPP19 pseudogene 2) #3 the results were G2 robust z-score 0.137; G2 cells, % of GMNN control 3.93; inactive.
IGSF23 (immunoglobulin superfamily member 23) #1 scored G2 robust z-score 0.486; G2 cells, % of GMNN control 6.39; inactive.
Against IGSF23 (immunoglobulin superfamily member 23) #2 the deposit lists G2 robust z-score -0.456; G2 cells, % of GMNN control -0.243; inactive.
Against IGSF23 (immunoglobulin superfamily member 23) #3, the entry reads G2 robust z-score 1.43; G2 cells, % of GMNN control 13; inactive.
ZHX2 (zinc fingers and homeoboxes 2) #1 scored G2 robust z-score -0.698; G2 cells, % of GMNN control -1.94; inactive.
For ZHX2 (zinc fingers and homeoboxes 2) #2, the values are G2 robust z-score -0.877; G2 cells, % of GMNN control -3.2; inactive.
ZHX2 (zinc fingers and homeoboxes 2) #3 showed G2 robust z-score -0.885; G2 cells, % of GMNN control -3.26; inactive.
After knock-down of ZNF334 (zinc finger protein 334) #1 the results were G2 robust z-score 4.82; G2 cells, % of GMNN control 36.9; inactive.
Depletion of ZNF334 (zinc finger protein 334) #2 resulted in: G2 robust z-score 0.932; G2 cells, % of GMNN control 9.53; inactive.
For ZNF334 (zinc finger protein 334) #3, the values are G2 robust z-score 9.25; G2 cells, % of GMNN control 68; active.
